From publication PMC3814723
Protein sequences can lack the tags named with them.

Tested on: T1, AdpAgh-His6 (Streptomyces ghanaensis ATCC14672)
T1 sequence (looked up): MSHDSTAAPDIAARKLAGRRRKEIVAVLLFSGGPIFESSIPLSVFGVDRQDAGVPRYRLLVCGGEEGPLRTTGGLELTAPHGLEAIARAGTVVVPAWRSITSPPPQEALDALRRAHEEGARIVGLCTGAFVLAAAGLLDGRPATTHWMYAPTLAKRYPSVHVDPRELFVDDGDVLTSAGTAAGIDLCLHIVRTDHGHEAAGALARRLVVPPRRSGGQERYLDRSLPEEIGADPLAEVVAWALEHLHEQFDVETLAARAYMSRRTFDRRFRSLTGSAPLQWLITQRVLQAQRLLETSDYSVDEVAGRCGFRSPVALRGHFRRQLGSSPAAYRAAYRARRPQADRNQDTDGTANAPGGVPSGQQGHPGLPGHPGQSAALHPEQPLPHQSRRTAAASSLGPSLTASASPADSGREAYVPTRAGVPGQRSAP
Assay: EMSA
Details: poly(dI-dC), 20 mM Tris-HCl pH 8.0, 1 mM EDTA, 1 mM DTT, 100 mM KCl, 10 mM MgCl2, 10% glycerol, 1 ug poly(dI-dC), 15 ul, 25 C, 15 min, 20 fmol probe, AdpAgh 1.1-88, recombinant protein, residues 1-428, protein details: C-terminal His6, label: 5'-32P, probe letters rebuilt from the primers and the genome

[1] = more than one complex at increasing AdpAgh

## AAATCTAGAGCCGGCCGCGCGGCGGACCGTGACCCGCACCGCGGGGAAGCGGACCGCGTCCGGGTCCGGCCCCCCCTTCCCGGGCGACACCGGGTGCCACCGGACGGAGCGGGGGCGCACCGGTCGGCTGACCGGTTTCCGTGCACGCCCCCGTATCTTTTCAGCCAACTTCTGCTCCTCGTGCATCTCCTGCCGTAACCACCCCCCAACCCCCGTTCGACCTGCACGGAAAGGGTCACGGGGGTCCCGTGCACCCTATGGGGATTGGCCACTGCGACGAGGCGCACTTCCCTGCACGGCCCGCGAGTGCAACGCTTCGTGATCGAATGCTTCACGCCAAGTTGCCAAGTCGACAATGTGCCGGATGCCGAACTGGCCACCGGGGCACGGCGGGACGCAGTAGATTCGATCTTGACTGTCTTACGGCGGGGGACTCGTGCAGGACCGAGGGGAAACGTGCAGGAGCGACACAACCGAGGGGTACCTTT (double strand) [adpAghp]
Intermediate complexes at 4.4 pmol, single band at saturation
  binding result: binds

## AAATCTAGAGCATAACCGCCGCACAAAGTCTCCCTACCCCACGGAAACGAACGCGTGTAGTATCGGCAACCGCCCTGCCGCACCCTGTCCTCGAGGCGGCCCGGTGGACCCGCTGTTCGTCTCTCCAGTGGAAGGGGAGTACGTGAACGACGCTTTTCGTCCGTCCGCCGGTGAATCCGCCGGACGGGCCCGCCGAAGGATTTCCGAGCACTTCCGCACTCCCTCGACCGCGGCGTGTGCCGGAACGGTCACGCAGTTCCCCGGGCGGGTCTGAAGGAAACCGCGCGACGGCGCCGGACCACGGCTTTCGCGCCGGCGCGGCACACCGGGAGGAACACTCCCGGCCGGCCGGGAACGGCCTCGGCGACCAGGGCGCCCCGCACCTCCATCCGAACGCGCGACACCTCATCCGGACGCGATCCGCACGTGCGACGCGGCCGGCACCCCGTCGCGTGACCCGACCGGACGACAAGCCGGACGGGTACCTTT (double strand) [moeO5p]
[1]
  binding result: binds

## AAAGGTACCAGGCCATGGGCTCCGCTTCGAGCTTCCGAGCCTATCGGGGCCCCTCTGCCGCGTGACGGCGGGATGGGCCGATCTTGTCTTATTTTATTGGCGCCTGAGGGAGCATCAGCACCTGGAACGCGCCGTCAGCACGTACCGACAGCCTTGCGCGTGACGGTCGGCCGCGCATGCGGATTGACGGAATTTCACCGTCTGAACAGGACGCTCCACCCGTTCTCGTCACGGCGGCCCTCGGGGTCCGCCGTCATCCCCAGGTATGACACGGCCTCCCGGCGCTCCGCCGGAAGTCGCCCCCGGAACCGGAGCAGCGGTTGACTGCACGGCGGCAAACGGACGGAACGATGGTGCACGTCCCCGAGAACCTCTCCGAGAACTTCTCCGAGAACCTCTCCGAGAACCTCTCCGAGAACATGTCGTCCTGACAGGAGTGCCCATCCCGTGACCACCGCACCCACCGCCGACCGGACCACCGCCGTGGCCGCGCGCGCCACGGACCTGTCGAAGTCTAGATTT (double strand) [bldAghp]
Three complexes, single band at high AdpAgh
  binding result: binds

## AAAGGTACCTCTGGACCCGCGCTATCTGACGGGTGTTCAGGCACAGGTCGTGATGGCGCACCAGGGCGATCCGCAGTTTGCGCTTGCGCCACAGCGGTATTCCCGACCGGGCCGGGGTCTCGGCCGGGGCGGAGCATCCGCCCGACGTCGCTCCCGCGGCGGGACCTGTGCTGATCACGGGCAATGTCTTCCGCATGCGATGTGCTCCTTCTGGGCCCTGCGGCTGATGTCTCGTGAAGTGGGGGTCTGCGGCGGTCCGGCCCCGCTACGGCCGGCGGCGGGCCCTTCGGACGGCGAGGTCCTCCAACTGCAGCAGGTAGAGCGCCAGGGGCTGCAGCCTGCTGACGCGCTGCGGGGCCCCGGGCCCCCGGCCGGCGGCCAGCAGCCGTTGCAGGAAGCGGTCGGGGCCGCGCCACCAGCCCGGTTCCACGACCGTCGCGTGGGCGAGGAACCGGAGCAGGTACGCCAGTCGGTGCGCGTCTAGATTT (double strand) [moeK5p]
[1]
  binding result: binds

## AAATCTAGAAGGGCGCCACCAGCTGGAGCCCCATCCCCGCGGGGACCAGGAGGGCGAGCAGCGCCACGGCGGTCCGTTCACCGCGCAGGTAGCGGACAAACGTGGAGAGATGCCGCAACGGACTGTCTGCCAACGCGCCCCTCCCCCGTTCGCCCGGCGGCGAGCGGCCAGCATAAAGTCCTGTGCGCCTCCTTGTGAATGACGCCTCGTCAACGGCGGCCGGAGCACGCCCTTTCTGCGGGAATGCCGATAGCGGACGCCGCTCCGGGAGGGGGCGAAGCACACCATTGCTCGTGATTGACGCATGCTGTTAGACTCCCCACGTCTCTTGGTCCGGACATGCGTTTCTCAACGCCGAAAGCCTGGTCAACCGCACTTTCGGCACCGCACAGTCCCACGGCGTCCGAGCGGTCGCGCGAGTCGGCCCGGTCGAGCCAGAGGCAGCCACACGAACGTGCACCGCAATGCACCGCCTTGATCGGTACCTTT (double strand) [moeE5p]
One shifted band
  binding result: binds
